PubChem BioAssay AID1224826 – NIAID, 2016
This is a random part of about 17,000 reagents tested. Of all reagents, about 1,110 (6.6%) are marked active. 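Active means lowered or raised reporter signal; replicate intensities are raw and not normalised per plate.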 Not all columns of the deposit are shown. Reagent sequences are not shown.

Test: 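Regulators of Tlr4 signalling leading to Tnf-alpha expression in macrophages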 (primary screen)
Cells: RAW264.7 G9 macrophages from mouse bearing reporters for p65 (GFP) and the Tnf promoter (mCherry)
Reagents: siRNA pool against mouse genes, 100 nM
Timing: 16 h of LPS stimulation, after 2 days of siRNA transfection
Treatment: bacterial lipopolysaccharide (Salmonella minnesota R595), 10 ng/ml
Detection: 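Nuclear mCherry signal of the Tnf promoter reporter measured by imaging after background removal, scaled to each plate median and turned into robust z-scores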
Scale: Tnf reporter robust z-score: higher = stronger Tnf promoter reporter signal after LPS
Active means: 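a well counts as active at a score of -1.3 or below (Tlr4 knock-down control median) or above 3 (raised signal); controls and wells holding fewer than 50 cells are excluded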
Calls: active = Tnf reporter clearly lowered or raised; inactive = no clear change in Tnf reporter

{"target": "Nit2", "Tnf reporter robust z-score": -0.18, "fewer than 50 cells in well": "enough cells in well", "outcome": "inactive"}
{"target": "Ar", "Tnf reporter robust z-score": -0.16, "fewer than 50 cells in well": "enough cells in well", "outcome": "inactive"}
{"target": "Bag3", "Tnf reporter robust z-score": -0.57, "fewer than 50 cells in well": "enough cells in well", "outcome": "inactive"}
{"target": "Cyp2j5", "Tnf reporter robust z-score": 0.37, "fewer than 50 cells in well": "enough cells in well", "outcome": "inactive"}
{"target": "Epor", "Tnf reporter robust z-score": 1.02, "fewer than 50 cells in well": "enough cells in well", "outcome": "inactive"}
{"target": "Ccdc9", "Tnf reporter robust z-score": -0.82, "fewer than 50 cells in well": "enough cells in well", "outcome": "inactive"}
{"target": "Vmn1r205", "Tnf reporter robust z-score": -0.77, "fewer than 50 cells in well": "enough cells in well", "outcome": "inactive"}
{"target": "Gtf2b", "Tnf reporter robust z-score": 0.32, "fewer than 50 cells in well": "enough cells in well", "outcome": "inactive"}
{"target": "Entpd5", "Tnf reporter robust z-score": -0.57, "fewer than 50 cells in well": "enough cells in well", "outcome": "inactive"}
{"target": "Prss42", "Tnf reporter robust z-score": -0.12, "fewer than 50 cells in well": "enough cells in well", "outcome": "inactive"}
{"target": "Maf1", "Tnf reporter robust z-score": 2.78, "fewer than 50 cells in well": "enough cells in well", "outcome": "inactive"}
{"target": "Slc39a8", "fewer than 50 cells in well": "fewer than 50 cells per well; well left out of calls", "outcome": "inactive"}
{"target": "Tectb", "Tnf reporter robust z-score": 1.05, "fewer than 50 cells in well": "enough cells in well", "outcome": "inactive"}
{"target": "Mrnip", "fewer than 50 cells in well": "fewer than 50 cells per well; well left out of calls", "outcome": "inactive"}
{"target": "Rab2b", "Tnf reporter robust z-score": -1.16, "fewer than 50 cells in well": "enough cells in well", "outcome": "inactive"}
{"target": "Sema5a", "Tnf reporter robust z-score": 1.14, "fewer than 50 cells in well": "enough cells in well", "outcome": "inactive"}
{"target": "Or5t18", "Tnf reporter robust z-score": 0.51, "fewer than 50 cells in well": "enough cells in well", "outcome": "inactive"}
{"target": "Pla2g5", "Tnf reporter robust z-score": -0.37, "fewer than 50 cells in well": "enough cells in well", "outcome": "inactive"}
{"target": "E2f4", "Tnf reporter robust z-score": -0.08, "fewer than 50 cells in well": "enough cells in well", "outcome": "inactive"}
{"target": "Krt7", "Tnf reporter robust z-score": -0.87, "fewer than 50 cells in well": "enough cells in well", "outcome": "inactive"}
{"target": "Zfp207", "Tnf reporter robust z-score": -1.14, "fewer than 50 cells in well": "enough cells in well", "outcome": "inactive"}
{"target": "Vmn1r33", "Tnf reporter robust z-score": -0.77, "fewer than 50 cells in well": "enough cells in well", "outcome": "inactive"}
{"target": "Or5d18", "fewer than 50 cells in well": "fewer than 50 cells per well; well left out of calls", "outcome": "inactive"}
{"target": "Sun5", "fewer than 50 cells in well": "fewer than 50 cells per well; well left out of calls", "outcome": "inactive"}
{"target": "D16Ertd472e", "Tnf reporter robust z-score": -0.71, "fewer than 50 cells in well": "enough cells in well", "outcome": "inactive"}
{"target": "Or4c31", "Tnf reporter robust z-score": -0.85, "fewer than 50 cells in well": "enough cells in well", "outcome": "inactive"}
{"target": "Snx18", "fewer than 50 cells in well": "fewer than 50 cells per well; well left out of calls", "outcome": "inactive"}

3 consecutive reagents from above:
{"target": "Entpd5", "Tnf reporter robust z-score": -0.57, "fewer than 50 cells in well": "enough cells in well", "outcome": "inactive"}
{"target": "Prss42", "Tnf reporter robust z-score": -0.12, "fewer than 50 cells in well": "enough cells in well", "outcome": "inactive"}
{"target": "Maf1", "Tnf reporter robust z-score": 2.78, "fewer than 50 cells in well": "enough cells in well", "outcome": "inactive"}
